Taken from: PubChem BioAssay AID1259254 (NCATS, 2017)
This is an unselected part of about 59,000 reagents. Of all reagents, about 1,550 (2.6%) were called active. 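G2 share is only a proxy for re-replication; each gene was hit by three separate siRNAs, and active genes were retested.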 The raw values are shown without normalisation. The numbers tell different reagents against one gene apart. The record does not give: the amount of reagent.

- Assay: 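Gene knock-downs that lead to re-replication, shown by excess G2 DNA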 (primary screen)
- Cells: human HCT116 colorectal cancer cells
- Reagents: single siRNA against human genes
- Timing: 3 days
- Measurement: 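Nuclei stained with Hoechst and imaged; cell-cycle phase assigned by DNA content; G2 share scaled per plate, non-targeting siRNA 0%, GMNN siRNA 100%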
- Direction: G2 robust z-score and G2 cells, % of GMNN control: higher = more G2 cells, more excess DNA replication; raw share of cells in G2: higher = larger share of cells with G2 DNA content
- Rule for the call: 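An siRNA counts as active if its G2 robust z-score lies at least 5 MADs above the screen median; here such calls match roughly 38% of GMNN control or more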

| target | reagent no. | G2 robust z-score | G2 cells, % of GMNN control | raw share of cells in G2 (%) | Outcome |
| --- | --- | --- | --- | --- | --- |
| OR10A6 | 1 | 0.981 | 9.87 | 7.16 | inactive |
| OR10A6 | 2 | -0.562 | -0.99 | 2.97 | inactive |
| OR10A6 | 3 | -1.4 | -6.91 | 1.67 | inactive |
| SEMA3B | 1 | -1.23 | -5.71 | 2.13 | inactive |
| SEMA3B | 2 | -0.866 | -3.12 | 4.28 | inactive |
| SEMA3B | 3 | -1.29 | -6.13 | 2.46 | inactive |
| C19orf53 | 1 | -0.694 | -1.92 | 2.65 | inactive |
| C19orf53 | 2 | 1.4 | 12.8 | 8.75 | inactive |
| C19orf53 | 3 | 0.66 | 7.61 | 7.43 | inactive |
| ZNF836 | 1 | 0.0194 | 3.1 | 4.71 | inactive |
| ZNF836 | 2 | 0.0867 | 3.58 | 4.16 | inactive |
| ZNF836 | 3 | -0.376 | 0.324 | 2.86 | inactive |
| MAGEA11 | 1 | -0.734 | -2.2 | 4.04 | inactive |
| MAGEA11 | 2 | 0.595 | 7.15 | 7.05 | inactive |
| MAGEA11 | 3 | -0.341 | 0.566 | 3.56 | inactive |
| IVL | 1 | 0.448 | 6.12 | 7.57 | inactive |
| IVL | 2 | 0.793 | 8.55 | 7.6 | inactive |
| IVL | 3 | 0.506 | 6.53 | 5.71 | inactive |
| ZNF280C | 1 | -0.411 | 0.0744 | 2.82 | inactive |
| ZNF280C | 2 | -0.783 | -2.54 | 4.76 | inactive |
| ZNF280C | 3 | 0.802 | 8.61 | 6.34 | inactive |
| RUNX1 | 1 | 0.772 | 8.4 | 6.79 | inactive |
| RUNX1 | 2 | 1.51 | 13.6 | 11.2 | inactive |
| RUNX1 | 3 | 0.236 | 4.63 | 4.79 | inactive |
| ILKAP | 1 | -1.28 | -6.02 | 2.84 | inactive |
| ILKAP | 2 | -0.353 | 0.484 | 4.45 | inactive |
| ILKAP | 3 | 0.84 | 8.88 | 6.17 | inactive |
| LOC727925 (retired record) | 1 | -1.1 | -4.8 | 1.78 | inactive |
| LOC727925 (retired record) | 2 | 0.0481 | 3.31 | 4.8 | inactive |
| LOC727925 (retired record) | 3 | -0.579 | -1.1 | 2.48 | inactive |
| TSNAX | 1 | -0.291 | 0.923 | 5.99 | inactive |
| TSNAX | 2 | 0.883 | 9.18 | 7.5 | inactive |
| TSNAX | 3 | -0.789 | -2.58 | 3.3 | inactive |
| ZSCAN1 | 1 | -0.748 | -2.29 | 2.8 | inactive |
| ZSCAN1 | 2 | -0.936 | -3.62 | 1.64 | inactive |
| ZSCAN1 | 3 | -0.572 | -1.06 | 2.95 | inactive |
| ZNF511 | 1 | 0.647 | 7.52 | 7.11 | inactive |
| ZNF511 | 2 | -1.03 | -4.25 | 2.06 | inactive |
| ZNF511 | 3 | 0.468 | 6.26 | 3.65 | inactive |
| FRG2B | 1 | 4.02 | 31.3 | 15.7 | inactive |
| FRG2B | 2 | -0.0375 | 2.7 | 4.44 | inactive |
| FRG2B | 3 | 4.82 | 36.9 | 15.6 | inactive |
| COQ9 | 1 | -1.47 | -7.36 | 1.8 | inactive |
| COQ9 | 2 | -0.85 | -3.01 | 3.08 | inactive |
| COQ9 | 3 | 0.398 | 5.77 | 8.96 | inactive |
| ATP6V0D2 | 1 | -1.26 | -5.93 | 3.13 | inactive |
| ATP6V0D2 | 2 | -0.749 | -2.3 | 3.86 | inactive |
| ATP6V0D2 | 3 | 3.7 | 29 | 16.9 | inactive |

Just “G2 cells, % of GMNN control”, for 5 of the entries above:
COQ9 #2 = -3.01
COQ9 #3 = 5.77
ATP6V0D2 #1 = -5.93
ATP6V0D2 #2 = -2.3
ATP6V0D2 #3 = 29
